# From the supplement of paper PMC4604168 (melanoma cell lines)
# The other results are listed elsewhere or left out. Single values are uncertain, as repeats are few or missing.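 The apoptosis fraction was the count of cleaved-PARP antibody-stained nuclei relative to all DNA-stained nuclei, imaged in 1,536-well plates. Screening doses were set so most cells survived, and baseline and induced cleaved-PARP levels vary greatly across cell lines.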
# What was measured:
# Assay in all cases: cleaved PARP positive nuclei fraction relative to DMSO control; melanoma cells; higher = more apoptosis
# Details in all cases: library dose: low library concentration; 72 h
# MZ2-MEL = test system: MZ2-MEL
# MeWo = test system: MeWo
# RPMI7951 = test system: RPMI7951
# RVH-421 = test system: RVH-421
# SkMel28 = test system: SkMel28
# SkMel30 = test system: SkMel30
# SkMel5 = test system: SkMel5
# UACC257 = test system: UACC257
# UACC62 = test system: UACC62
Structure (SMILES),cleaved PARP positive nuclei fraction (MZ2-MEL),cleaved PARP positive nuclei fraction (MeWo),cleaved PARP positive nuclei fraction (RPMI7951),cleaved PARP positive nuclei fraction (RVH-421),cleaved PARP positive nuclei fraction (SkMel28),cleaved PARP positive nuclei fraction (SkMel30),cleaved PARP positive nuclei fraction (SkMel5),cleaved PARP positive nuclei fraction (UACC257),cleaved PARP positive nuclei fraction (UACC62)
"OCCn1cc(-c2cnc3nnn(Cc4ccc5ncccc5c4)c3n2)cn1 + COc1ccc(-c2ccc3c(N4CCOCC4)nc(N4C[C@@H](C)O[C@@H](C)C4)nc3n2)cc1CO [KU0063794] (first compound 1 µM, partner dose 0.02 µM)",115%,111%,37.6%,47.8%,127%,26.1%,80.4%,61.2%,55.2%
"Cn1nnc2c(C(N)=O)ncn2c1=O [temozolomide] + Oc1cc(-c2nc(-c3ccccc3)[nH]c2-c2ccncc2)ccc1Cl [L779450] (first compound 2 µM, partner dose 0.2 µM)",74.1%,57.8%,171%,243%,109%,369%,53.7%,77.2%,645%
"Cn1nnc2c(C(N)=O)ncn2c1=O [temozolomide] + CCCCCCCCCCCC1=C(O)C(=O)C=C(O)C1=O [Embelin] (first compound 2 µM, partner dose 1.2 µM)",40.3%,102%,77.9%,132%,129%,60.1%,138%,67.1%,92.2%
"Cn1c(Nc2ccc(C(F)(F)F)cc2)nc2cc(Oc3ccnc(-c4ncc(C(F)(F)F)[nH]4)c3)ccc21 + O=C(Nc1ccccc1)c1cc([N+](=O)[O-])ccc1Cl [GW9662] (first compound 0.08 µM, partner dose 2 µM)",242%,130%,118%,73.3%,321%,43.1%,154%,1380%,109%
"O=C(Nc1cccc(Cl)c1)Nc1ncc(CCNc2ncnc3ccsc23)s1 + O=S(=O)(c1ccccc1)N(CC(F)(F)F)c1ccc(C(O)(C(F)(F)F)C(F)(F)F)cc1 [T0901317] (first compound 0.0008 µM, partner dose 1.4 µM)",123%,56.7%,96.1%,141%,125%,230%,66.7%,210%,174%
"Nc1cccc2c1CN(C1CCC(=O)NC1=O)C2=O (configuration not stated) [lenalidomide] + COc1ccc(-c2ccc3c(N4CCOCC4)nc(N4C[C@@H](C)O[C@@H](C)C4)nc3n2)cc1CO [KU0063794] (first compound 1 µM, partner dose 0.02 µM)",117%,127%,45.3%,138%,129%,45.8%,107%,187%,82.2%
"COc1cc(Nc2ncc(F)c(Nc3ccc4c(n3)NC(=O)C(C)(C)O4)n2)cc(OC)c1OC [Tamatinib] + CCN(CC)CCCCNc1ncc2cc(-c3cc(OC)cc(OC)c3)c(NC(=O)NC(C)(C)C)nc2n1 [PD173074] (first compound 0.4 µM, partner dose 0.1 µM)",171%,110%,27.5%,96.9%,153%,17.4%,97.9%,194%,181%
"C[C@@H]1CCN(C(=O)CC#N)C[C@@H]1N(C)c1ncnc2[nH]ccc12 + O=C(Nc1ccccc1)c1cc([N+](=O)[O-])ccc1Cl [GW9662] (first compound 1 µM, partner dose 2 µM)",169%,34.3%,40.4%,114%,84.9%,150%,39.3%,144%,48.5%
"CO[C@@H]1[C@H](N(C)C(=O)c2ccccc2)C[C@H]2O[C@]1(C)n1c3ccccc3c3c4c(c5c6ccccc6n2c5c31)C(=O)NC4 [Midostaurin] + O=C(Nc1ccccc1)c1cc([N+](=O)[O-])ccc1Cl [GW9662] (first compound 0.08 µM, partner dose 2 µM)",239%,28.2%,38.3%,108%,92.3%,18.7%,79.4%,117%,40.5%
"O=C(Nc1cccc(Cl)c1)Nc1ncc(CCNc2ncnc3ccsc23)s1 + COc1ccc2c(c1)CCC1C2CCC2(C)C(NCCCCCCN3C(=O)C=CC3=O)CCC12 [U73122] (first compound 0.0008 µM, partner dose 0.4 µM)",183%,26.1%,90%,26.4%,280%,125%,29.2%,38.5%,94.1%
"Cc1nc(Nc2ncc(C(=O)Nc3c(C)cccc3Cl)s2)cc(N2CCN(CCO)CC2)n1 [dasatanib] + COc1ccc(-c2ccc3c(N4CCOCC4)nc(N4C[C@@H](C)O[C@@H](C)C4)nc3n2)cc1CO [KU0063794] (first compound 0.004 µM, partner dose 0.02 µM)",124%,231%,66.5%,113%,148%,30.2%,57.4%,217%,57.9%
"Cc1cc(N2CCOCC2)cc2[nH]c(-c3c(NC[C@@H](O)c4cccc(Cl)c4)cc[nH]c3=O)nc12 + Cc1cc([N+](=O)[O-])ccc1NS(=O)(=O)c1cc(Cl)ccc1Cl [FH535] (first compound 0.2 µM, partner dose 1 µM)",117%,163%,81.5%,125%,98.2%,215%,34.5%,281%,223%
"NC(=O)Nc1cc(-c2cccc(F)c2)sc1C(=O)N[C@H]1CCCNC1 + COc1ccc2c(c1)CCC1C2CCC2(C)C(NCCCCCCN3C(=O)C=CC3=O)CCC12 [U73122] (first compound 0.02 µM, partner dose 0.4 µM)",113%,100%,35.3%,53.7%,95.3%,68.1%,56.3%,99.5%,120%
"O=C(CCCCCCC(=O)Nc1ccccc1)NO [vorinostat] + CCCCCCCCCCCC1=C(O)C(=O)C=C(O)C1=O [Embelin] (first compound 0.08 µM, partner dose 1.2 µM)",116%,110%,94.3%,72.1%,130%,275%,63.4%,168%,140%
"Cc1nc(Nc2ncc(C(=O)Nc3c(C)cccc3Cl)s2)cc(N2CCN(CCO)CC2)n1 [dasatanib] + Oc1cc(-c2nc(-c3ccccc3)[nH]c2-c2ccncc2)ccc1Cl [L779450] (first compound 0.004 µM, partner dose 0.2 µM)",98.9%,26.6%,52.6%,73.9%,179%,42.9%,63.4%,187%,109%
"O=C(Nc1cccc(Cl)c1)Nc1ncc(CCNc2ncnc3ccsc23)s1 + COC(=O)c1sccc1S(=O)(=O)Nc1ccc(Nc2ccccc2)cc1OC [GSK0660] (first compound 0.0008 µM, partner dose 1 µM)",93.1%,226%,79.6%,93%,81.2%,33.3%,76.6%,86.7%,58.7%
"OCCn1cc(-c2cnc3nnn(Cc4ccc5ncccc5c4)c3n2)cn1 + O=C(Nc1ccccc1)c1cc([N+](=O)[O-])ccc1Cl [GW9662] (first compound 1 µM, partner dose 2 µM)",89.1%,115%,73.9%,108%,132%,44.3%,362%,44.6%,140%
"CC(C)(C)c1cnc(CSc2cnc(NC(=O)C3CCNCC3)s2)o1 + COc1ccc(-c2ccc3c(N4CCOCC4)nc(N4C[C@@H](C)O[C@@H](C)C4)nc3n2)cc1CO [KU0063794] (first compound 0.01 µM, partner dose 0.02 µM)",196%,114%,90.2%,78%,73.4%,184%,28.1%,48.5%,180%
"Cc1ccc(NC(=O)c2cccc(N(C)C)c2)cc1NC(=O)c1ccc(O)cc1 + COc1cc2ncnc(Nc3ccc(Oc4ccccc4)cc3)c2cc1OC [SrcI1] (first compound 2 µM, partner dose 2 µM)",86%,56.4%,41.5%,158%,106%,120%,104%,82.2%,80.5%
"Nc1cccc2c1CN(C1CCC(=O)NC1=O)C2=O (configuration not stated) [lenalidomide] + CC(C)CCN1c2nc(Nc3cc(F)c(O)c(F)c3)ncc2N(C)C(=O)C1C [BID1870] (first compound 1 µM, partner dose 0.2 µM)",55.5%,85.5%,31.9%,83.3%,22.6%,49.3%,169%,76.5%,207%
"Cn1cncc1[C@@](N)(c1ccc(Cl)cc1)c1ccc2c(c1)c(-c1cccc(Cl)c1)cc(=O)n2C [tipifarnib] + COc1ccc(COc2ccc(Cc3cnc(N)nc3N)cc2OC)cc1 [GW2580] (first compound 0.01 µM, partner dose 1 µM)",121%,75.5%,95.1%,141%,89.7%,19.1%,185%,120%,50.8%
"Cc1ccc(NC(=O)c2cccc(N(C)C)c2)cc1NC(=O)c1ccc(O)cc1 + Cc1cc([N+](=O)[O-])ccc1NS(=O)(=O)c1cc(Cl)ccc1Cl [FH535] (first compound 2 µM, partner dose 1 µM)",53.3%,28.1%,78.2%,97%,82.1%,164%,73.8%,73.6%,111%
"Cc1cc(N2CCOCC2)cc2[nH]c(-c3c(NC[C@@H](O)c4cccc(Cl)c4)cc[nH]c3=O)nc12 + CCN(CC)CCCCNc1ncc2cc(-c3cc(OC)cc(OC)c3)c(NC(=O)NC(C)(C)C)nc2n1 [PD173074] (first compound 0.2 µM, partner dose 0.1 µM)",104%,169%,81.2%,115%,34.3%,126%,124%,419%,42.4%

# Given as tab-separated lines: entries from further up
Structure (SMILES)	cleaved PARP positive nuclei fraction (MZ2-MEL)	cleaved PARP positive nuclei fraction (MeWo)	cleaved PARP positive nuclei fraction (RPMI7951)	cleaved PARP positive nuclei fraction (RVH-421)	cleaved PARP positive nuclei fraction (SkMel28)	cleaved PARP positive nuclei fraction (SkMel30)	cleaved PARP positive nuclei fraction (SkMel5)	cleaved PARP positive nuclei fraction (UACC257)	cleaved PARP positive nuclei fraction (UACC62)
CC(C)(C)c1cnc(CSc2cnc(NC(=O)C3CCNCC3)s2)o1 + COc1ccc(-c2ccc3c(N4CCOCC4)nc(N4C[C@@H](C)O[C@@H](C)C4)nc3n2)cc1CO [KU0063794] (first compound 0.01 µM, partner dose 0.02 µM)	196%	114%	90.2%	78%	73.4%	184%	28.1%	48.5%	180%
Cc1ccc(NC(=O)c2cccc(N(C)C)c2)cc1NC(=O)c1ccc(O)cc1 + COc1cc2ncnc(Nc3ccc(Oc4ccccc4)cc3)c2cc1OC [SrcI1] (first compound 2 µM, partner dose 2 µM)	86%	56.4%	41.5%	158%	106%	120%	104%	82.2%	80.5%
